Laboratory results published in patent US4624953A, “1-piperazinocarboxylates and pharmaceutical compositions containing them” (priority 1981, dated 1986).

Tested on: isolation-induced aggressive behaviour
Assay: Isolation-induced aggressive behaviour test
Assay type: in vivo, male NMRI mice
Details: Mus musculus, sc, 0.5 h, read-out: ED50, isolation induced aggressive behaviour
From the text: Male mice subjected to prolonged isolation develop aggressive behaviour against each other when paired (Yen, C. Y. et al., Arch. Int. Pharmacodyn. 123, 179, (1959); Valzelli, L., Adv. Pharmacol. 5, 79 (1967)). […] The clinical correlation of this test indicates tranquillizing and anxiolytic activities as well as antiaggressive properties as such (Duncan, R. L. et al., J. Med. Chem. 13, 1 (1970)).
This type of aggression is interesting because it is known that this kind of emotional behaviour might be located in limbic structures in the brain (MacLean, P. D., Psychosom. Med. 11, 338 (1949)).
Every week male NMRI mice, weighing 20-22 g, were isolated in Makrolon cages for three weeks with diet and water ad libitum. A piece of cardboard was placed between the cages to prevent visual contact.
To test aggressiveness the mice were paired in a neutral area, a beaker (14 cm high and diameter 14 cm). A pair is considered aggressive if both the animals show clear signs of fighting within 5 min. This fighting is characterized by biting and vocalization. As soon as fighting is seen, the mice are separated and brought to their home cage. […] Animals showing no aggression are discarded. […] The test substance is administered s.c. (0.2-0.4 ml/20 g). The mice are paired 0.5 h after the injection for trials of 5 min. duration. […]

## CN1C(=O)CN=C(c2ccccc2)c2cc(Cl)ccc21 [Diazepam]
  ED50: 6.7 mg/kg
